31 compounds from PubChem BioAssay AID330 (DTP/NCI, 2004) can be followed below.

The assay has as its system P388 leukemia ip, CD2F1 mice, survival T/C. The assay can be described thus: NCI In Vivo Anticancer Drug Screen. Data for tumor model P388 Leukemia (intraperitoneal) in CD2F1 (CDF1) mice. To be noted: T/C endpoint: median survival time, higher T/C = longer survival.
Where [1] appears, read: dose: 400.0 mg/kg/injection, schedule: Q04DX003 (ip), vehicle: saline with Tween-80.
[2] abbreviates: dose: 200.0 mg/kg/injection, schedule: Q01DX009 (ip), vehicle: saline.
The mark [3] stands for this setting: dose: 100.0 mg/kg/injection, schedule: Q01DX009 (ip), vehicle: Klucel (hydroxypropylcellulose) (HPC).
The mark [4] stands for this setting: dose: 400.0 mg/kg/injection, schedule: Q01DX009 (ip), vehicle: water.
Setting [5] is: dose: 50.0 mg/kg/injection, schedule: Q01DX009 (ip), vehicle: saline.
The mark [6] stands for this setting: dose: 200.0 mg/kg/injection, schedule: Q01DX005 (ip), vehicle: Klucel (hydroxypropylcellulose) (HPC).
[7] abbreviates: dose: 120.0 mg/kg/injection, schedule: Q01DX005 (ip), vehicle: saline with Tween-80.
The mark [8] stands for this setting: dose: 240.0 mg/kg/injection, schedule: Q01DX005 (ip), vehicle: saline with Tween-80.
Where [9] appears, read: dose: 200.0 mg/kg/injection, schedule: Q01DX005 (ip), vehicle: saline.
The mark [10] stands for this setting: dose: 240.0 mg/kg/injection, schedule: Q01DX005 (ip), vehicle: Klucel (hydroxypropylcellulose) (HPC).

Structures are written as SMILES. The list shows only some results of the screen, not a fair sample: it gathers tests that were run many times, whatever their T/C, doses with no T/C, and many T/C values between a quarter and a half above the control. Other doses and runs of a compound stand elsewhere. T/C: endpoint of the treated group in % of that of the vehicle group. Some entries give survivors of the animals treated and no T/C: the source files T/C as zero there, which appears to mark a toxic dose or a test without result, not a measured value. Some survivor counts are full or nearly so, which does not show that the dose was tolerated: survival well below the control is almost never listed, so the zero probably covers shortened survival too. Counts of survivors are from the toxicity check (mostly the fifth day) where no day follows; animals may have died later. Schedule codes are those of the source, read here as Q, the interval in days (D) or hours (H), X, the number of doses. Some entries hold several experiments; the values are given in rising order. Where survival is the endpoint, this PubChem deposit counts one and a half times the control or more as active, and values a quarter to a half above the control carry no call in these data; other NCI protocols may use other cut-offs.

On to `COC(C#N)c1ccccc1` (stereo unspecified), for which the T/C (dose: 12.5 mg/kg/injection, schedule: Q04DX003 (ip), vehicle: saline with Tween-80) is 132 % of control. Besides, the survivor count by setting is: (dose: 50.0 mg/kg/injection, schedule: Q04DX003 (ip), vehicle: saline with Tween-80) 2 of 6; (dose: 50.0 mg/kg/injection, schedule: Q04DX003 (ip), vehicle: saline) 0 of 6; (dose: 100.0 mg/kg/injection, schedule: Q04DX003 (ip), vehicle: saline with Tween-80) 0 of 6; (dose: 100.0 mg/kg/injection, schedule: Q04DX003 (ip), vehicle: saline) 0 of 6; (dose: 200.0 mg/kg/injection, schedule: Q04DX003 (ip), vehicle: saline with Tween-80) 0 of 6; (dose: 200.0 mg/kg/injection, schedule: Q04DX003 (ip), vehicle: saline) 0 of 6. For the same compound, the survivor count is, setting by setting: under setting [1], 0 of 6; (dose: 400.0 mg/kg/injection, schedule: Q04DX003 (ip), vehicle: saline) 0 of 6. As to `COc1cccc(C(=O)CCN(C)C)c1`, the survivor count under setting [2] is on record as 1 of 6.

As for `O=C1c2ccccc2C(=O)c2c1cccc2N1CCOCC1`, the survivor count under setting [3] is on record as 6 of 6.

`CC(=O)OC(C(=O)O)N1C(=O)C2C3C=CC(C2C1=O)C1C2C(=O)N(C(OC(C)=O)C(=O)O)C(=O)C2C31` (stereo unspecified): the T/C (dose: 200.0 mg/kg/injection, schedule: Q01DX009 (ip), vehicle: water) is 125 % of control. In addition, under setting [4], the T/C is 142 % of control and the survivor count is 3 of 6. Regarding `Nc1nn2nnnc2c2ccccc12`, the survivor count (dose: 200.0 mg/kg/injection, schedule: Q04DX002 (ip), vehicle: saline) was 3 of 6.

Regarding `CC1CN1P(=S)(N1CC1C)N1CC1C` (stereo unspecified), the T/C (dose: 20.0 mg/kg/injection, schedule: Q01DX010 (ip), vehicle: saline) was 130 % of control. Consider `CC(C)NCCCNc1c2ccccc2nc2cccc([N+](=O)[O-])c12`, for which the survivor count was 4 of 6 (dose: 3.12 mg/kg/injection, schedule: Q01DX009 (ip), vehicle: saline); 0 of 6 (dose: 6.25 mg/kg/injection, schedule: Q01DX009 (ip), vehicle: saline); 0 of 6 (dose: 12.5 mg/kg/injection, schedule: Q01DX009 (ip), vehicle: saline); 0 of 6 under setting [5]; 0 of 6 (dose: 100.0 mg/kg/injection, schedule: Q01DX009 (ip), vehicle: saline); 0 of 6 under setting [2].

Consider `COc1cc(C(=O)Oc2c(OC)cc(C(=O)c3cc4c(cc3C)OCO4)cc2OC)cc(OC)c1OC`, for which, under setting [6], the survivor count is listed as 5 of 6. Consider `O=S(=O)(O)c1cc2cc(S(=O)(=O)O)c3nnc4cc(S(=O)(=O)O)cc5cc(S(=O)(=O)O)c(nnc6cc(S(=O)(=O)O)cc7cc(S(=O)(=O)O)c(nnc(c1)c2c3O)c(O)c76)c(O)c54`, for which the survivor count reads like this: under setting [7], 0 of 6 and 1 of 6; under setting [8], 0 of 6. As for `CCN(CC)/C([Se])=N/N=C(\C)c1ccccn1`, the survivor count (dose: 400.0 mg/kg/injection, schedule: Q04DX003 (ip), vehicle: Klucel (hydroxypropylcellulose) (HPC)) was 1 of 6.

Take `O=C([O-])c1ccccc1[O-].[Cu+2].c1ccc(-c2ccccn2)nc1`: the survivor count (dose: 25.0 mg/kg/injection, schedule: Q01DX005 (ip), vehicle: Klucel (hydroxypropylcellulose) (HPC)) was 0 of 6; the survivor count (dose: 50.0 mg/kg/injection, schedule: Q01DX005 (ip), vehicle: Klucel (hydroxypropylcellulose) (HPC)) is listed as 0 of 6; the survivor count (dose: 100.0 mg/kg/injection, schedule: Q01DX005 (ip), vehicle: Klucel (hydroxypropylcellulose) (HPC)) is listed as 0 of 6; the survivor count under setting [6] is on record as 0 of 6. In the case of `CC(C)c1ccc(C(=O)O)cc1`, under “dose: 400.0 mg/kg/injection, schedule: Q01DX009 (ip), vehicle: saline with Tween-80”, the survivor count is 5 of 6.

Consider `N#[N+]c1ccc2c(S(=O)(=O)Oc3ccc(C(=O)c4ccccc4)c(OS(=O)(=O)c4cccc5c([O-])c([N+]#N)ccc45)c3)cccc2c1[O-]`, for which the survivor count (dose: 100.0 mg/kg/injection, schedule: Q01DX005 (ip), vehicle: saline with Tween-80) was 1 of 5 and the survivor count (dose: 200.0 mg/kg/injection, schedule: Q01DX005 (ip), vehicle: saline with Tween-80) was 0 of 5.

On to `COc1ccc(CNCCCSC)cc1`, for which the survivor count under setting [9] is 0 of 6. For the compound `C/C=C/N=NNc1ccccc1OC`, the survivor count is listed as 5 of 6 (dose: 200.0 mg/kg/injection, schedule: Q04DX003 (ip), vehicle: saline + Tween-80 + alcohol) and 0 of 6 (dose: 400.0 mg/kg/injection, schedule: Q04DX003 (ip), vehicle: saline + Tween-80 + alcohol). On to `C=C1C(=O)OC2/C=C(/CO)C3(O)CC(O)C(C)(CC(OC(=O)/C(C)=C/C)C12)O3` (stereo unspecified), for which the T/C runs as follows: (dose: 5.0 mg/kg/injection, schedule: Q01DX009 (ip), vehicle: saline with Tween-80) 134 % of control; (dose: 20.0 mg/kg/injection, schedule: Q01DX009 (ip), vehicle: saline with Tween-80) 128 % of control. Also, the survivor count is, setting by setting: (dose: 40.0 mg/kg/injection, schedule: Q01DX009 (ip), vehicle: saline with Tween-80) 0 of 6 and 3 of 6; (dose: 80.0 mg/kg/injection, schedule: Q01DX009 (ip), vehicle: saline with Tween-80) 0 of 6.

As for `CCCCCCOC(=O)c1ccccc1OP(=O)(N(C)C)N(C)C`, under setting [9], the survivor count is recorded as 0 of 6.

On to `CN1CCC(c2ccccc2)C(OC(=O)c2ccccc2)C1` (stereo unspecified), for which the survivor count under setting [9] is reported as 6 of 6. For `CCOC(=O)/C=C/CI`, the T/C (dose: 100.0 mg/kg/injection, schedule: Q01DX009 (ip), vehicle: other) is 126 % of control. For the same compound, the survivor count (dose: 200.0 mg/kg/injection, schedule: Q01DX009 (ip), vehicle: other) was 0 of 6, 1 of 6, 4 of 6.

`Cc1ccc(F)cc1NC(=S)NN`: the survivor count is listed as 0 of 6 (dose: 60.0 mg/kg/injection, schedule: Q01DX005 (ip), vehicle: Klucel (hydroxypropylcellulose) (HPC)); 0 of 6 (dose: 120.0 mg/kg/injection, schedule: Q01DX005 (ip), vehicle: Klucel (hydroxypropylcellulose) (HPC)); 0 of 6 under setting [10]. On to `CC1NC(=O)NC(=O)C1(Cl)Cl` (stereo unspecified), for which the survivor count under setting [5] is given as 6 of 6. For `CCOC(=O)c1c(C#N)c2ccccc2n1O`, the survivor count (dose: 200.0 mg/kg/injection, schedule: Q01DX001 (ip), vehicle: saline with Tween-80) is recorded as 2 of 6. On to `C/C(=N/N=C(N)N)c1cn[nH]c1C`, for which, under setting [10], the T/C is 125 % of control. In the case of `Cc1ccc(N2CCN(CCCC3(c4ccccc4)OCCO3)CC2C)cc1Cl` (stereo unspecified), under setting [1], the T/C was 125 % of control. As to `CCC[As](CCC)SC1OC(C2COC(C)(C)O2)C2OC(C)(C)OC12` (stereo unspecified), the survivor count by setting is: (dose: 50.0 mg/kg/injection, schedule: Q01DX009 (ip), vehicle: distilled water + Tween-80) 0 of 6; (dose: 100.0 mg/kg/injection, schedule: Q01DX009 (ip), vehicle: distilled water + Tween-80) 0 of 6; (dose: 200.0 mg/kg/injection, schedule: Q01DX009 (ip), vehicle: distilled water + Tween-80) 0 of 6.

As for `CSc1nc2ccc(NC(C)=O)cc2s1`, the survivor count under setting [3] was 6 of 6. Consider `C[N+]1(Cc2ccccc2)CCC(O)(C(=O)c2ccccc2)CC1` (stereo unspecified), for which the survivor count runs as follows: under setting [7], 2 of 6; under setting [8], 1 of 6. Consider `CCCCCCCCC1(OCCCS(=O)(=O)O)COc2ccccc2OCCOCCOc2ccccc2OC1`, for which the survivor count under setting [7] was 1 of 6. For `Brc1ccc(N=C2N=C(Nc3ccc(Br)cn3)c3ccccc32)nc1`, the survivor count (dose: 100.0 mg/kg/injection, schedule: Q04DX002 (ip), vehicle: saline with Tween-80) was 6 of 6. With `NC(CSCSCc1ccccc1)C(=O)O` (stereo unspecified), the survivor count (dose: 400.0 mg/kg/injection, schedule: Q01DX009 (ip), vehicle: other) is 2 of 6.

On to `O=C(O)c1c(Cl)n(Cc2cc(Cl)ccc2Cl)c2ccccc12`, for which the survivor count under setting [10] was 5 of 6.
